For three molecules, binding results are on record in PMC11729909.

These are yes or no findings as the source states them, for the method shown. For part of these data: Binding seen in cells or lysates may run through a third protein. Some results given as binding are weak or reduced against the parent protein; the word gives no strength. Where a sequence is shown, tags or fusion partners need not be part of it.

Test [1] concerns the target T1, FLAG-tagged FOXP1 (wild type, full length) (human) (UniProt Q9H334).
T1 sequence: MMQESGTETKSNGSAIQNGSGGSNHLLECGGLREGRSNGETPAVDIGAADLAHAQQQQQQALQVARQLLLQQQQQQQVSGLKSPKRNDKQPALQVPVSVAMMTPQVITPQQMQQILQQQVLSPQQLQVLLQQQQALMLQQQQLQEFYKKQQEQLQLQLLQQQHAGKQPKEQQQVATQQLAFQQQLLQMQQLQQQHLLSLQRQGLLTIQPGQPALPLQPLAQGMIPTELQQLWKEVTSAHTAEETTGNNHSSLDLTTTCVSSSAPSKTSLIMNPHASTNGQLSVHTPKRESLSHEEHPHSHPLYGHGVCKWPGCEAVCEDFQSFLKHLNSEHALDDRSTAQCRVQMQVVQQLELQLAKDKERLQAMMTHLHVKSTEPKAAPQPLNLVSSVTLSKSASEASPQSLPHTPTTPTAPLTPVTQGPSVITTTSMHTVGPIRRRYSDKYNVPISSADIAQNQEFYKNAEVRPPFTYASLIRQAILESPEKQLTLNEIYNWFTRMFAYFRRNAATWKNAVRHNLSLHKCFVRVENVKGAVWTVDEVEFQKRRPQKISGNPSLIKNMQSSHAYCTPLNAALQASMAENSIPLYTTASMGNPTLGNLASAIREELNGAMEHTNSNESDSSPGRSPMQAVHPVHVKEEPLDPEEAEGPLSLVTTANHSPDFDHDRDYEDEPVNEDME
Nature of the test: co-IP; HEK293T transfected with the indicated plasmids, lysed in NETN buffer, Anti-FLAG Affinity Gel 4 h at 4 °C, immunoblot; in some panels 2 mM HU, Thiamet-G, OGT siRNA, ATR inhibitors (VE-822, NU6027) or CHK1 inhibitors (Rabusertib, UCN-01). A general note: Immunoblotting shows a protein as a band on a membrane.

The target of a further test is T2, GST-tagged ATRIP (human) (UniProt Q8WXE1).
T2 sequence: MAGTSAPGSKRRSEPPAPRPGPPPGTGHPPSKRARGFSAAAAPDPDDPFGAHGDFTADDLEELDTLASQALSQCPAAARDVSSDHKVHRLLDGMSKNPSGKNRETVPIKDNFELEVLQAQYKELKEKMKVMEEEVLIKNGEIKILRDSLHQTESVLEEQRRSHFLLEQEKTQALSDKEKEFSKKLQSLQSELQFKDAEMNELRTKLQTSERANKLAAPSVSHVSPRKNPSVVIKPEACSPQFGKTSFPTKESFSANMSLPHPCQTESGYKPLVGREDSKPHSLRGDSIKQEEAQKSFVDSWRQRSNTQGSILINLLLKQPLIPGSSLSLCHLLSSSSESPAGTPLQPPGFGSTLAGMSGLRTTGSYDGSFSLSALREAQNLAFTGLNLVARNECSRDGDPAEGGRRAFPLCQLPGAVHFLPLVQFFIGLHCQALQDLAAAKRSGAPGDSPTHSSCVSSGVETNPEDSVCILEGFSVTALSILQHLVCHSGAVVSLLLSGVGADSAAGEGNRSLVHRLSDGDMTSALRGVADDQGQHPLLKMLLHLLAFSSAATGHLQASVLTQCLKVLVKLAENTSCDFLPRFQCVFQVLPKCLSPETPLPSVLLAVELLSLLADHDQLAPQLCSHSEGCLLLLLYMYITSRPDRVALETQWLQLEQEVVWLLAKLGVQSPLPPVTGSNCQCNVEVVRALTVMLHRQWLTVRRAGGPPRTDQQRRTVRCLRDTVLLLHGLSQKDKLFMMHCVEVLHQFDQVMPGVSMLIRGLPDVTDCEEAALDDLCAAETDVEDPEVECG
Nature of the test: pull-down; His-tagged FOXP1 incubated with GST-tagged ATRIP, GST pull-down on glutathione beads, immunoblot; both purified.

B1: OGT (endogenous) (enzyme, UniProt O15294 1-1046)
chain: MASSVGNVADSTEPTKRMLSFQGLAELAHREYQAGDFEAAERHCMQLWRQEPDNTGVLLLLSSIHFQCRRLDRSAHFSTLAIKQNPLLAEAYSNLGNVYKERGQLQEAIEHYRHALRLKPDFIDGYINLAAALVAAGDMEGAVQAYVSALQYNPDLYCVRSDLGNLLKALGRLEEAKACYLKAIETQPNFAVAWSNLGCVFNAQGEIWLAIHHFEKAVTLDPNFLDAYINLGNVLKEARIFDRAVAAYLRALSLSPNHAVVHGNLACVYYEQGLIDLAIDTYRRAIELQPHFPDAYCNLANALKEKGSVAEAEDCYNTALRLCPTHADSLNNLANIKREQGNIEEAVRLYRKALEVFPEFAAAHSNLASVLQQQGKLQEALMHYKEAIRISPTFADAYSNMGNTLKEMQDVQGALQCYTRAIQINPAFADAHSNLASIHKDSGNIPEAIASYRTALKLKPDFPDAYCNLAHCLQIVCDWTDYDERMKKLVSIVADQLEKNRLPSVHPHHSMLYPLSHGFRKAIAERHGNLCLDKINVLHKPPYEHPKDLKLSDGRLRVGYVSSDFGNHPTSHLMQSIPGMHNPDKFEVFCYALSPDDGTNFRVKVMAEANHFIDLSQIPCNGKAADRIHQDGIHILVNMNGYTKGARNELFALRPAPIQAMWLGYPGTSGALFMDYIITDQETSPAEVAEQYSEKLAYMPHTFFIGDHANMFPHLKKKAVIDFKSNGHIYDNRIVLNGIDLKAFLDSLPDVKIVKMKCPDGGDNADSSNTALNMPVIPMNTIAEAVIEMINRGQIQITINGFSISNGLATTQINNKAATGEEVPRTIIVTTRSQYGLPEDAIVYCNFNQLYKIDPSTLQMWANILKRVPNSVLWLLRFPAVGEPNIQQYAQNMGLPQNRIIFSPVAPKEEHVRRGQLADVCLDTPLCNGHTTGMDVLWAGTPMVTMPGETLASRVAASQLTCLGCLELIAKNRQEYEDIAVKLGTDLEYLKKVRGKVWKQRISSPLFNTKQYTMELERLYLQMWEHYAAGNKPDHMIKPVEVTESA
Turning to B1, in test [1], the binding entry was “binds”.

B2: His-tagged FOXP1 (protein, UniProt Q9H334 1-677)
chain: T1 sequence
B2: in the test with GST-tagged ATRIP (human), the binding result is reported as “binds”.

B3: HA-tagged ATRIP (protein, UniProt Q8WXE1 1-791)
chain: T2 sequence
Consider B3, for which, in test [1], the binding result is reported as “binds”.
